Measurements: US8895035B2, “Alkoxyimino derivative and pest control agent” (Kumiai Chemical Industry Co., Ltd, priority 2010, dated 2014)
Some entries share one result that the patent states for a list of compounds. At least one compound was matched to its structure with a doubt left.

These molecules were tested on Aphis gossipii Glover (cotton aphid, melon aphid) (assay: Insecticidal action test for Aphis gossipii Glover (seedling immersion)). Details: 500 ppm active ingredient; cucumber seedlings with hatchlings immersed; 25° C.; after 3 days.
Assay type: in vivo
Procedure: A wettable powder prepared based on Formulation Example 2 was diluted with water so that the concentration of active ingredient became 500 ppm. In the resulting liquid were immersed cucumber seedlings on which the hatchlings of Aphis gossipii Glover were parasitic, after which the cucumber seedlings were dried in the air. The resulting cucumber seedlings were placed in a thermostat of 25° C. After 3 days, the number of living insects was calculated and the mortality of insect was calculated using the calculation formula of the following Mathematical Expression 1. Insect mortality (%)=[1−(number of living insects)/(number of tested insects)]×100 [Mathematical Expression 1]

SMILES | insect mortality [%]
CC(C)ON=C(C(=NOC(C)C)n1cncn1)c1ccccc1C(F)(F)F (single isomer, unassigned) [I-345] | ≥ 90
CON=C(Cl)C(=NOC(C)C)n1cncn1 [I-1] | ≥ 90
CCCCCCON=C(Cl)C(=NOC(C)C)n1cncn1 [I-14] | ≥ 90
CC(C)ON=C(C(=NOCCCc1ccccc1)C(N)=O)n1cncn1 [I-342] | ≥ 90
CON=C(C(C#N)=NOCCCN(C)C)n1cncn1 [II-309] | ≥ 90
CCON=C(C(C#N)=NOCOC)n1cncn1 [III-277] | ≥ 90
CC(C)ON=C(Cl)C(=NOC(C)C)C(N)=O [VI-269] | ≥ 90
CCON=C(Cl)C(C#N)=NOCC(F)(F)C(F)(F)C(F)(F)F [VI-276] | ≥ 90

The molecules below were run on Nilaparvata lugens Stál (brown rice planthopper) (assay: Insecticidal action test for Nilaparvata lugens Stál (immersed sprouting rice)). Details: 500 ppm active ingredient; sprouting unhulled rice immersed; 3-age larvae; 25° C.; after 6 days.
Assay type: in vivo
Procedure: A wettable powder prepared based on Formulation Example 2 was diluted with water so that the concentration of active ingredient became 500 ppm. In the diluted formulation were immersed sprouting unhulled rice. The immersed rice was placed in a plastic cup of 60 ml. Into the plastic cup were released 10 3-age larvae of Nilaparvata lugens Stál (brown rice planthopper). The cup was covered with a cap and placed in a thermostat of 25° C. After 6 days, the number of living insects was counted and the mortality of insect was calculated using the calculation formula of Mathematical Expression 1.

SMILES | insect mortality [%]
CC(C)ON=C(C(=NOC(C)C)n1cncn1)c1ccccc1C(F)(F)F (single isomer, unassigned) [I-345] | ≥ 90
CON=C(Cl)C(=NOC(C)C)n1cncn1 [I-1] | ≥ 90
CCCCCCON=C(Cl)C(=NOC(C)C)n1cncn1 [I-14] | ≥ 90
CCON=C(C(C#N)=NOCC(C)C)n1cncn1 [III-52] | ≥ 90
CCON=C(C(=NOCC1CCCC1)C(N)=O)n1cncn1 [III-89] | ≥ 90
C#CCON=C(C(N)=O)C(=NOCC)n1cncn1 [III-91] | ≥ 90
CCCCCCCCON=C(C(N)=O)C(=NOCC)n1cncn1 [III-234] | ≥ 90
CCON=C(C(=NOCc1ccccc1)C(N)=O)n1cncn1 [III-243] | ≥ 90
CCON=C(C(=NOCCOC)C(N)=O)n1cncn1 [III-263] | ≥ 90
CCON=C(C(=NOC)c1cccnc1)n1cncn1 [III-264] | ≥ 90
CCON=C(C(=NOC)c1cccnc1Cl)n1cncn1 [III-266] | ≥ 90
CCON=C(C(=NOC)c1cccs1)n1cncn1 [III-267] | ≥ 90
CCON=C(C(=NOC/C=C/Cl)C(N)=O)n1cncn1 [III-270] | ≥ 90
CCON=C(C(C#N)=NOC(F)(F)C(F)C(F)(F)F)n1cncn1 (centres unmarked) [III-299] | ≥ 90
COCCON=C(C(Cl)=NOC(C)C)n1cncn1 [IV-11] | ≥ 90
CC(C)ON=C(Cl)C(=NOCCCCOC(C)(C)C)n1cncn1 [IV-14] | ≥ 90
CCCON=C(C(=NOC(C)C)C(N)=O)n1cncn1 [IV-15] | ≥ 90
CC(C)CON=C(C(=NOC(C)C)C(N)=O)n1cncn1 [IV-17] | ≥ 90
CCC(C)ON=C(C(=NOC(C)C)C(N)=O)n1cncn1 (centres unmarked) [IV-18] | ≥ 90
CC(C)ON=C(C(N)=O)C(=NOC(C)(C)C)n1cncn1 [IV-19] | ≥ 90
CC(C)CCON=C(C(=NOC(C)C)C(N)=O)n1cncn1 [IV-20] | ≥ 90
CC(C)ON=C(C(N)=O)C(=NOCC1CC1)n1cncn1 [IV-21] | ≥ 90
C#CCON=C(C(=NOC(C)C)C(N)=O)n1cncn1 [IV-23] | ≥ 90
CCOCCON=C(C(=NOC(C)C)C(N)=O)n1cncn1 [IV-27] | ≥ 90

SMILES | insect mortality [%]
CC(C)CON=C(C(C#N)=NOC(C)C)n1cncn1 [IV-32] | ≥ 90
CC(C)ON=C(C#N)C(=NOC(C)(C)C)n1cncn1 [IV-34] | ≥ 90
CC(C)CCON=C(C(C#N)=NOC(C)C)n1cncn1 [IV-35] | ≥ 90
CCCON=C(C(=NOCC)C(N)=O)n1cncn1 [IV-100] | ≥ 90
CCCON=C(C(=NOCC(C)C)C(N)=O)n1cncn1 [IV-103] | ≥ 90
CCCON=C(C(=NOCC1CC1)C(N)=O)n1cncn1 [IV-106] | ≥ 90
C#CCON=C(C(N)=O)C(=NOCCC)n1cncn1 [IV-108] | ≥ 90
CCCON=C(C(=NOCC(F)(F)F)C(N)=O)n1cncn1 [IV-109] | ≥ 90
CCCON=C(C(=NOCc1ccccc1)C(N)=O)n1cncn1 [IV-110] | ≥ 90
CCCON=C(C(=NOCC(F)(F)C(F)(F)F)C(N)=O)n1cncn1 [IV-182] | ≥ 90
N#CC(=NOCc1ccccc1)C(=NOCC(F)(F)F)n1ccnc1 [IV-184] | ≥ 90
NC(=O)C(=NOCC(F)(F)C(F)(F)F)C(=NOCC(F)(F)F)n1ccnc1 [IV-186] | ≥ 90
N#CC(=NOCC(F)(F)C(F)(F)F)C(=NOCC(F)(F)F)n1cncn1 [IV-187] | ≥ 90
CCON=C(C#N)C(=NOCC)n1cnc(C(F)(F)F)n1 [V-181] | ≥ 90
CCCON=C(C#N)C(Cl)=NOC(C)C [VI-26] | ≥ 90
CC(C)ON=C(Cl)C(C#N)=NOC(C)C [VI-27] | ≥ 90
CC(C)CON=C(C#N)C(Cl)=NOC(C)C [VI-29] | ≥ 90
CCC(C)ON=C(C#N)C(Cl)=NOC(C)C (centres unmarked) [VI-30] | ≥ 90
CC(C)ON=C(Cl)C(C#N)=NOC(C)(C)C [VI-31] | ≥ 90
CCCCCON=C(C#N)C(Cl)=NOC(C)C [VI-32] | ≥ 90
CC(C)ON=C(Cl)C(C#N)=NOCC(C)(C)C [VI-34] | ≥ 90
CCCCCCON=C(C#N)C(Cl)=NOC(C)C [VI-37] | ≥ 90
CC(C)ON=C(Cl)C(C#N)=NOCCC(C)(C)C [VI-38] | ≥ 90
CC(C)ON=C(Cl)C(C#N)=NOC1CCCC1 [VI-39] | ≥ 90

SMILES | insect mortality [%]
CC(C)ON=C(Cl)C(C#N)=NOCC1CC1 [VI-41] | ≥ 90
C=CCON=C(C#N)C(Cl)=NOC(C)C [VI-44] | ≥ 90
C#CCON=C(C#N)C(Cl)=NOC(C)C [VI-45] | ≥ 90
CC(=NOCC(C)C)C(Cl)=NOC(C)C [VI-53] | ≥ 90
CCON=C(Cl)C(C#N)=NOC [VI-89] | ≥ 90
CCCCON=C(C#N)C(Cl)=NOCC [VI-93] | ≥ 90
CCCCCON=C(C#N)C(Cl)=NOCC [VI-97] | ≥ 90
CCON=C(Cl)C(C#N)=NOCC(C)(C)C [VI-99] | ≥ 90
CCON=C(Cl)C(C#N)=NOCCC(C)(C)C [VI-103] | ≥ 90
CCCON=C(C#N)C(Cl)=NOC [VI-155] | ≥ 90
CON=C(Cl)C(C#N)=NOC(C)C [VI-156] | ≥ 90
CCCCON=C(C#N)C(Cl)=NOC [VI-157] | ≥ 90
CCCCCON=C(C#N)C(Cl)=NOC [VI-161] | ≥ 90
CON=C(Cl)C(C#N)=NOCC(C)(C)C [VI-163] | ≥ 90
CCCCCCON=C(C#N)C(Cl)=NOC [VI-166] | ≥ 90
N#CC(=NOCC1CC1)C(Cl)=NOCC1CC1 [VI-214] | ≥ 90
CC(C)ON=C(Cl)C(C#N)=NOC1CCC1 [VI-247] | ≥ 90
CC(C)ON=C(Cl)C(C#N)=NOC[Si](C)(C)C [VI-248] | ≥ 90
CC(C)ON=C(Cl)C(C#N)=NOC(C)C1CC1 (centres unmarked) [VI-250] | ≥ 90
CCON=C(Cl)C(C#N)=NOCC(C)(C)CC [VI-274] | ≥ 90
CCC(C)(C)CON=C(C#N)C(Cl)=NOC [VI-275] | ≥ 90
CC(C)ON=C(Cl)C(C#N)=NOCc1ccc(F)cc1 [VI-277] | ≥ 90
CC(C)ON=C(Cl)C(C#N)=NOCc1ccccc1C(F)(F)F [VI-278] | ≥ 90
CCCON=C(Cl)C(C#N)=NOCC(C)(C)C [VI-281] | ≥ 90
